Among the data in PubChem BioAssay AID2685 (National Center for Advancing Translational Sciences (NCATS), 2010) are cell number change and AC50 values, retold here.

Each structure is given as a SMILES string. This is one part of the list. The main result of the screen is listed elsewhere. These columns were measured beside it and carry no call. Most of these compounds were active or inconclusive in the main read-out, so they are no random draw. The note in brackets gives the kind of curve behind each potency; many fits are weak.

The assay can be described thus: qHTS Assay for Lipid Storage Modulators in Drosophila S3 Cells.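 On cell number change: cells counted by Cell Tracker Red CMTPX staining in the red channel.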 Conditions: BODIPY lipid droplet fluorescence, 18-24 h; for cell number change: measured here: cell count max response, cells fed with added oleic acid. In a few lines: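 Drosophila S3 cells loaded with oleic acid (400 uM, as added) and compounds at several concentrations; lipid droplets imaged by 488-nm laser-scanning cytometry, 500–530 nm intensity and object ratio to cell channel. Percent activity normalized to 20 uM Triacsin C.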

[1] abbreviates: measured here: cell number channel AC50, cells fed with added oleic acid.
Where [2] appears, read: measured here: lipid fluorescence (Fed channel) AC50, cells fed with added oleic acid.

As for `Cc1ccc(OCc2nnc(SCc3ccc(C#N)cc3)n2-c2ccc(C)cc2)cc1`, the cell number change was -0.809%. For the same compound, the AC50 under setting [1] is 366 nM [rising, full curve].

As for `Cn1cc2cc(NC(N)=S)ccc2n1`, the cell number change stood at 37.4%.

Turning to `O=C(NCc1ccccc1Cl)c1cnc2ccccc2n1`, the cell number change stood at 4.62%.

`CC(C)(C)c1cc[n+](C2=C([O-])c3ccccc3C(=O)/C2=N\S(=O)(=O)c2ccccc2)cc1`: the cell number change is -28.8%. For the same compound, the AC50 under setting [2] was 18400 nM [falling, single point].

As to `COc1ccc(N2CCN(C(=O)COC(=O)c3ccc(CSC)o3)CC2)cc1`, the cell number change is -3.81%. For the same compound, under setting [2], the half-maximal activity concentration (AC50) was 580 nM [falling, full curve, poor fit].

Consider `CCCN(CCC)Cc1c(C(=O)N/N=C/c2ccoc2)nnn1-c1nonc1N`, for which the cell number change came out at 12.9%. Under setting [2], the AC50 was 517 nM [rising, partial curve].

Regarding `O=C(Nc1ccccc1)Nc1c(F)cccc1F`, the cell number change is -17.5%. Further, the AC50 under setting [2] is 29100 nM [falling, single point].

Regarding `Cc1nc(N2CCN(Cc3ccccc3)CC2)nc2c1CCC2`, the cell number change stood at 13.6%. Moreover, the AC50 under setting [2] was 1300 nM [rising, full curve, poor fit].

For `CC(=O)Nc1ccc(OCC(O)Cn2nc(C)nc2C)cc1` (stereo unspecified), the cell number change was -43.6%. Moreover, the AC50 under setting [1] is 8200 nM [falling, partial curve]. Besides, the AC50 under setting [2] was 8200 nM [falling, partial curve].

`O=C(c1cc(Cl)cc(Cl)c1)N1CCC(=O)N(C(COCc2ccccc2)Cc2ccccc2)CC1` (stereo unspecified): the cell number change is -1.54%. Moreover, the half-maximal activity concentration (AC50) under setting [2] was 4110 nM [rising, partial curve].

On to `O=C(O)CC12CC3CC(C1)CC(n1ncc(NCc4ccco4)c(Cl)c1=O)(C3)C2`, for which the cell number change is -14.8%.

For the compound `Cc1ccsc1/C=N/N1CCN(c2ccccc2)CC1`, the cell number change stood at 5.5%. Under setting [2], the AC50 was 3660 nM [rising, single point].

As to `CC(=O)c1cccc(NC(=O)N2C3CCC2CC(NC(=O)Nc2ccccc2)C3)c1` (stereo unspecified), under setting [2], the AC50 is 184 nM [rising, partial curve, poor fit].

In the case of `Cc1cc(Cl)ccc1OCC(=O)Nc1cccc(S(=O)(=O)N2CCCC2)c1`, the cell number change turned out to be 17.6%. The AC50 under setting [2] is 580 nM [rising, full curve, poor fit].

For the compound `Cc1cc(C)n(C(C)CNS(=O)(=O)c2ccc(C)c(C)c2)n1` (stereo unspecified), the cell number change amounted to 24.8%.

For `CCCc1ccc(OCc2ccc(C(=O)N3CCN(c4ccccn4)CC3)o2)c(OC)c1`, the AC50 is 580 nM [falling, single point] under setting [1] and 580 nM [falling, single point] under setting [2].

As to `CC(C)(C)c1ccc(OCC(=O)N/N=C/c2ccsc2)cc1`, the cell number change was -26.2%.

In the case of `O=C(Nc1cccc(F)c1)Nc1c[nH]c(=O)[nH]c1=O`, the cell number change is -13.9%.

Regarding `CC(C)C[C@H](NC(=O)N1CCn2c1nc1ccccc12)C(=O)N1CCCCC1`, the cell number change is 11%.

As to `O=C(Nc1ccc(N2CCN(C(=O)c3cccs3)CC2)cc1)c1cccnc1`, the cell number change was -14.2%. Besides, the AC50 under setting [1] is 5.17 nM [falling, full curve, poor fit]. Besides, under setting [2], the AC50 was 4.61 nM [falling, full curve, poor fit].

Consider `CCCN1CNC(=S)N(CC2CCCO2)C1` (stereo unspecified), for which the cell number change is 16.7%. The AC50 under setting [1] was 731 nM [falling, full curve].

Consider `CCCN(CCC)C(C(=O)Nc1cccc(OC)c1)c1ccccc1` (stereo unspecified), for which the cell number change is -11.9%. Under setting [2], the AC50 was 116 nM [falling, single point].

As to `N#Cc1ccccc1/C=N/Nc1nc(-c2ccccc2)c2cc(Cl)ccc2n1`, the cell number change is -7.53%.

Consider `Cc1cc(C(F)F)n2ncc(C(=O)NCc3ccccc3)c2n1`, for which the cell number change was -13.4%. The AC50 under setting [2] was 20600 nM [rising, single point].

Turning to `CCc1cccc(CC)c1-n1c(SCn2nnc3ccccc3c2=O)nnc1-c1cccnc1`, the cell number change amounted to 41.1%. Under setting [1], the AC50 is 29100 nM [rising, single point]. Moreover, under setting [2], the AC50 was 6510 nM [rising, partial curve].

Regarding `O=C(C[n+]1cc[nH]c1)c1ccc(Cl)cc1`, the cell number change worked out at 3.16%. Moreover, the AC50 under setting [2] is 580 nM [falling, single point].

As to `Cc1nc2c(-c3ccc(F)cc3)c(C)nn2c(C)c1CCC(=O)N1CCOCC1`, the cell number change is -4.78%. For the same compound, the AC50 under setting [2] is 731 nM [rising, full curve].

As to `COc1cccc(-c2nc(CS(=O)(=O)CC(=O)NCCCN3CCN(C)CC3)c(C)o2)c1`, the cell number change was found to be 2.75%. In addition, the AC50 under setting [2] was 10300 nM [rising, partial curve].

As to `COc1cccc(C(=O)COC(=O)c2cccs2)c1`, the cell number change was 3.47%. Under setting [2], the AC50 is 5.17 nM [falling, full curve, poor fit].

With `COC(=O)CCC(=O)c1oc2ccccc2c1NC(=O)CCCN1C(=O)c2ccccc2C1=O`, the cell number change is -33.3%. Also, the concentration at half-maximal activity (AC50) under setting [2] is 146 nM [falling, full curve, poor fit].

For `COc1ccc(-c2nc(C(=O)O)cs2)cc1OC`, the cell number change was -30.2%. Further, the half-maximal activity concentration (AC50) under setting [1] is 58 nM [falling, full curve, poor fit]. Further, under setting [2], the AC50 is 291 nM [falling, partial curve, poor fit].

For `Cc1ccc(C(=O)O)cc1NC(=S)NC(=O)c1ccc(COc2ccccc2)cc1`, the cell number change turned out to be 18.2%.

`COc1ccc(NC(=O)CN2CCN(c3ccc(C)cc3C)CC2)cc1`: the cell number change was 10.9%. Moreover, the AC50 under setting [2] was 29100 nM [rising, single point].

`N#CCSc1nc2ccccc2c(=O)n1CCCC(=O)NCC1CCCO1` (stereo unspecified): the cell number change was determined as 26%. Further, under setting [1], the AC50 was 326 nM [rising, full curve, poor fit].

With `CCOC(=O)CNS(=O)(=O)Cc1ccccc1`, the cell number change is -5.78%.

For the compound `CCOC(=O)Cc1csc(NC(=O)c2ccc(Br)s2)n1`, the cell number change is -33.1%. Besides, the AC50 under setting [1] is 23100 nM [falling, partial curve]. The AC50 under setting [2] is 29100 nM [falling, single point].

For `CC1=NN(C(C#N)c2ccccc2C)C(C)(C)C1` (stereo unspecified), the cell number change is -21.6%. Also, the AC50 under setting [2] was 116 nM [falling, full curve, poor fit].

`CC(=O)Nc1ccc(/C=N/Nc2ccc(C(=O)c3c(C)cc4ccccn34)cc2[N+](=O)[O-])cc1`: the cell number change was -0.778%. The AC50 under setting [2] was 4110 nM [falling, full curve].

With `CCCCNS(=O)(=O)c1ccc2nc(SCC(=O)Nc3sccc3C#N)[nH]c2c1`, the cell number change was -6.17%. Also, the AC50 under setting [2] was 461 nM [rising, full curve].

Regarding `CCOC(=O)c1cnc(SC2CC(=O)N(c3ccccc3)C2=O)nc1N` (stereo unspecified), the cell number change was 15.4%. The AC50 under setting [2] was 11600 nM [rising, partial curve, poor fit].

`Cc1nn(CC(=O)NC(=O)NC2CCCC(C)C2C)c(=O)c(C#N)c1C` (stereo unspecified): the cell number change was 3.99%. Under setting [2], the AC50 was 5800 nM [rising, single point].

As usually defined, the AC50 is the concentration at which the activity in the assay is half-maximal. Read a low AC50 as greater potency.
